# Source: patent publication US8722690B2, “Mesoionic pesticides” (E I du Pont de Nemours and Company, priority 2009, dated 2014)
# Where a name gives a salt, the structure may show the parent alone. Read-outs that look alike come from different tables or passages of the source. Some results were stated once for a whole list of compounds, not compound by compound. At least one compound was matched to its structure with a doubt left.
# Legend:
# Format in all cases: in vivo
# [1] = test system: diamondback moth (Plutella xylostella); test: Test A: control of diamondback moth on radish plant, foliar spray; conditions: 6 days, very good to excellent levels of control efficacy
# [2] = test system: fall armyworm (Spodoptera frugiperda); test: Test B: control of fall armyworm on maize plant, foliar spray; conditions: very good to excellent levels of control efficacy
# [3] = test system: green peach aphid (Myzus persicae); conditions: 6 days, radish plant
# Excerpt: For evaluating control of green peach aphid (Myzus persicae) through contact and/or systemic means, the test unit consisted of a small open container with a 12-15-day-old radish plant inside. This was pre-infested by placing on a leaf of the test plant 30-40 aphids on a piece of leaf excised from a culture plant (cut-leaf method). The aphids moved onto the test plant as the leaf piece desiccated. After pre-infestation, the soil of the test unit was covered with a layer of sand.
# Test compounds were formulated and sprayed at 50 ppm and/or 10 ppm as described for Test A. The applications were replicated three times. After spraying of the formulated test compound, each test unit was allowed to dry for 1 h and then a black, screened cap was placed on top. The test units were held for 6 days in a growth chamber at 19-21° C. and 50-70% relative humidity. Each test unit was then visually assessed for insect mortality.
# [4] = test system: cotton melon aphid (Aphis gossypii); test: Test D: control of cotton melon aphid on cotton plant, contact and/or systemic
# Excerpt: For evaluating control of cotton melon aphid (Aphis gossypii) through contact and/or systemic means, the test unit consisted of a small open container with a 6-7-day-old cotton plant inside. This was pre-infested with 30-40 insects on a piece of leaf according to the cut-leaf method described for Test C, and the soil of the test unit was covered with a layer of sand.
# Test compounds were formulated and sprayed at 50 ppm and/or 10 ppm as described for Test C. The applications were replicated three times. After spraying, the test units were maintained in a growth chamber and then visually rated as described for Test C.
# [5] = test system: corn planthopper (Peregrinus maidis); conditions: 6 days, maize plant, very good to excellent levels of control efficacy
# In short: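 Potted 3-4-day-old maize plants sprayed at 50 ppm and/or 10 ppm in three replicates, dried 1 h, then infested with ~15-20 nymphs (18 to 21 day old). Held 6 days at 22-24 °C and 50-70% relative humidity; mortality scored visually.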
# [6] = test system: potato leafhopper (Empoasca fabae); conditions: 6 days, Soleil bean plant, very good to excellent levels of control efficacy
# [7] = test system: Western Flower Thrips (Frankliniella occidentalis); test: Test G: control of Western Flower Thrips on Soleil bean plant, contact and/or systemic; conditions: sprayed at 250 ppm, 7 days, very good to excellent levels of control efficacy
Structure (SMILES),control efficacy: feeding damage (40% or less feeding damage and/or 100% mortality) ([1]; sprayed at 10 ppm),control efficacy: feeding damage (40% or less feeding damage and/or 100% mortality) ([1]; sprayed at 50 ppm),control efficacy: feeding damage (40% or less feeding damage and/or 100% mortality) ([2]; sprayed at 10 ppm),control efficacy: feeding damage (40% or less feeding damage and/or 100% mortality) ([2]; sprayed at 50 ppm),mortality ([3]; sprayed at 10 ppm),mortality ([3]; sprayed at 50 ppm),mortality ([4]; sprayed at 50 ppm),control efficacy: mortality ([5]; sprayed at 10 ppm),control efficacy: mortality ([5]; sprayed at 50 ppm),control efficacy: mortality ([6]; sprayed at 10 ppm),control efficacy: mortality ([6]; sprayed at 50 ppm),control efficacy: plant damage (30% or less plant damage and/or 100% mortality) [7],mortality ([4]; sprayed at 10 ppm)
"Cc1cccn2c(=O)c(-c3ccc(F)cc3)c([O-])[n+](Cc3cnc(Cl)s3)c12 [Compound 50, 1-[(2-chloro-5-thiazolyl)methyl]-3-(4-fluorophenyl)-2-hydroxy-9-methyl-4-oxo-4H-pyrido[1,2-a]pyrimidinium inner salt]",≤ 40%,≤ 40%,≤ 40%,≤ 40%,at least 80%,at least 80%,at least 80%,≥ 80%,≥ 80%,≥ 80%,≥ 80%,≤ 30%,–
"Cc1cccn2c(=O)c(-c3cc(Cl)cc(C(F)(F)F)c3)c([O-])[n+](Cc3cnc(Cl)s3)c12 [Compound 81, 1-[(2-chloro-5-thiazolyl)methyl]-3-[3-chloro-5-(trifluoromethyl)phenyl]-2-hydroxy-9-methyl-4-oxo-4H-pyrido[1,2-a]pyrimidinium inner salt]",≤ 40%,≤ 40%,≤ 40%,≤ 40%,at least 80%,at least 80%,at least 80%,≥ 80%,≥ 80%,≥ 80%,≥ 80%,–,–
"Cc1cccn2c(=O)c(-c3cc(F)cc(C(F)(F)F)c3)c([O-])[n+](Cc3cnc(Cl)s3)c12 [Compound 82, 1-[(2-chloro-5-thiazolyl)methyl]-3-[3-fluoro-5-(trifluoromethyl)phenyl]-2-hydroxy-9-methyl-4-oxo-4H-pyrido[1,2-a]pyrimidinium inner salt]",≤ 40%,≤ 40%,≤ 40%,≤ 40%,–,at least 80%,at least 80%,≥ 80%,≥ 80%,≥ 80%,≥ 80%,–,–
"COc1cc(I)cc(-c2c([O-])[n+](Cc3cnc(Cl)s3)c3c(C)cccn3c2=O)c1 [Compound 83, 1-[(2-chloro-5-thiazolyl)methyl]-2-hydroxy-3-(3-iodo-5-methoxyphenyl)-9-methyl-4-oxo-4H-pyrido[1,2-a]pyrimidinium inner salt]",≤ 40%,≤ 40%,≤ 40%,≤ 40%,at least 80%,at least 80%,at least 80%,–,≥ 80%,≥ 80%,≥ 80%,–,at least 80%
"C=Cc1cccc(-c2c([O-])[n+](Cc3cnc(Cl)s3)c3c(C)cccn3c2=O)c1 [Compound 102, 1-[(2-chloro-5-thiazolyl)methyl]-3-(3-ethenylphenyl)-2-hydroxy-9-methyl-4-oxo-4H-pyrido[1,2-a]pyrimidinium inner salt]",≤ 40%,≤ 40%,≤ 40%,≤ 40%,–,at least 80%,at least 80%,≥ 80%,≥ 80%,≥ 80%,–,–,–
